These are yes or no findings as the source states them, for the method shown. In cells and extracts the contact can be indirect. Binding calls can cover weak binding; strength is not graded here. Sequences can lack the tags named with a protein.
Assays:
GFP-NOP58 [1] = target: T1, GFP-NOP58 (UniProt Q9Y2X3); test: FRET or BRET; FLIM-FRET live cell imaging in HEK293T; GFP-NOP58 donor, RFP-BMAL1 acceptor; phasor analysis
T1 sequence: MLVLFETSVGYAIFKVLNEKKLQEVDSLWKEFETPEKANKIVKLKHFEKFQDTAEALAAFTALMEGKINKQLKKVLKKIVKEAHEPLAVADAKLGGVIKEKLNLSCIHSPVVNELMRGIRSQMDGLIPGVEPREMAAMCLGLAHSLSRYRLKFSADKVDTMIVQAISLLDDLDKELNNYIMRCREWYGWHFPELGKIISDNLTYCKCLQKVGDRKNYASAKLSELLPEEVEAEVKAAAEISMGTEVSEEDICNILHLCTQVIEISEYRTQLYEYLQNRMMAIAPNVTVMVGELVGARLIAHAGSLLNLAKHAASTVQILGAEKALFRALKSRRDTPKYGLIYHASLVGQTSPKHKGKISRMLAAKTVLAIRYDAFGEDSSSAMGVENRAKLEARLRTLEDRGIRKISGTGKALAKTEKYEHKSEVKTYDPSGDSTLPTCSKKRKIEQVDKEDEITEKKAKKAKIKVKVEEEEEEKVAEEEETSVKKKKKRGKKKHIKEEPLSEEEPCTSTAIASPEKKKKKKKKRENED

GFP-NOP58 [2] = target: T1, GFP-NOP58; test: co-IP; HEK293T co-transfected; IP with GFP or rabbit IgG, western blot of Myc, GFP and AcBMAL1K538; with and without Myc-CLOCK

For RFP-BMAL1, the binding (GFP-NOP58 [1]) was “binds”.
For Myc-BMAL1K538Q, the binding (GFP-NOP58 [2]) was “binds”.
With Myc-BMAL1K538R the binding (GFP-NOP58 [2]) was “binds”.
Myc-BMAL1 (wild type) was tested, and the binding (GFP-NOP58 [2]) was “binds”.

— PMC7256328
